According to PubChem BioAssay AID1487 (National Center for Advancing Translational Sciences (NCATS), 2009):
Screen size: about 200,000 compounds; about 25 (0.01%) were called active. Inconclusive means that the source gave no clear call. Such entries were picked first, then a sample of the others. Calls come from the whole dose curve; as a rule, active = well fitted inhibition curve with a large enough effect in the signal ratio, with a control signal flat (not every such curve was filed as active); inconclusive = small, poorly fitted or top-dose-only effect, or effect the other way, or a change in a side signal; inactive = flat fitted curve, though single readings scatter; the % refers to the signal ratio. A potency beside an inconclusive call is a rough fit, not a confirmed value.

Test: qHTS Assay for Modulators of Lamin A Splicing
Details: HeLa LMNA splicing GFP/RFP minigene ratio, 48 h; ratio change, negative = inhibition: at 46.1 µM (top of the series) unless noted
Method in brief: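 S3 HeLa stable clones carrying a lamin A-EGFP splicing minigene plus DsRed2 were seeded at 600 cells/well in Opti-MEM with 2% FBS, pin-dosed and incubated 48 h at 37°C. Acumen cytometry (488 nm) gave the GFP/RFP total-intensity ratio.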
% is set by controls: 0 for no effect and ±100 for the full control effect; potency is the fitted concentration of half-maximal effect.

Compound	Potency	ratio change, negative = inhibition
Cc1ccc(S(=O)(=O)Nc2cc(C(=O)N3CCC4(CC3)OCCO4)ccc2N2CCCCC2)cc1	inconclusive: 35.5 µM [activator, single point]	–
C[C@]12C=CC(=O)C=C1CCC1C2=CC[C@]2(C)[C@@H](C(=O)CN3CCN(c4cc(N5CCCC5)nc(N5CCCC5)n4)CC3)CC[C@@H]12 (some centres not stated)	inconclusive: 11.2 µM [inhibitor, partial curve, poor fit]	–
COC(=O)C(O)(c1ccc(NC(=S)NC(=O)c2ccc(Cl)cc2Cl)cc1)C(F)(F)F (configuration not stated)	inconclusive: 35.5 µM [fluorescent, single point]	–
COc1cccc(C(=O)C2CN(C)CC2c2ccc(Cl)cc2)c1 (configuration not stated)	–	inconclusive: -7.19% [at 46 µM]
NC(Cn1ccc(=O)[nH]c1=O)C(=O)O (configuration not stated)	–	inactive: -11.7%
CN1/C(=C\C=C\C2=[N+](C)c3ccc4ccccc4c3C2(C)C)C(C)(C)c2ccccc21	inconclusive: 2.51 µM [inhibitor, partial curve]	–
CO[C@@H](C)[C@](O)(C(=O)OCC1=CCN2CC[C@@H](O)[C@H]12)C(C)C	–	inconclusive: -34.4%
COc1ccc(N2CCN(C(=O)c3cc(=O)[nH]c4ccccc34)CC2)cc1	inconclusive: 0.01 µM [inhibitor, full curve, poor fit]	–
CCc1ccc(NP(=O)(Oc2ccccc2F)Oc2ccccc2F)cc1	–	inconclusive: 222% [at 46 µM]
Cc1ccc(C(C)C)c(OCC#CCN2CCCC2)c1	–	inconclusive: -24% [at 46 µM]
CN1CCC2(CC1)C(C#N)=C(N)NC(S)=C2C#N	–	inactive
CCC(=NCc1ccc2c(c1)OCO2)c1c(O)n(C2CCCCC2)c(=O)[nH]c1=O	–	inactive: -14.1%
CCCCc1ccc(C(=O)O)nc1	–	inconclusive: -36.1%
Oc1ccc(Cl)cc1Cc1ccccc1	–	inconclusive: 35%
CCCCN1C(=O)/C(=C/c2ccc(N(C)C)cc2)C(=O)N(Cc2ccco2)C1=O	–	inactive: 5.5%
CCC1(c2ccccc2)CCC(=O)NC1=O (configuration not stated)	–	inconclusive: -6.91%
Fc1cccc(CCNCc2ccccn2)c1	–	inactive: 9.24%
CC1(C(O)(C#CCN2CCCCC2)c2ccccc2)CCCC1 (configuration not stated)	–	inconclusive: 53.5% [at 46 µM]
Cc1ccc(Cl)c(O)c1	–	inconclusive: -34.6%
CC(=NCCCO)c1c(O)n(Cc2ccccc2)c(=O)[nH]c1=O	–	inactive: -3.56%
CC(C)(O)C(Cl)(Cl)Cl	–	inconclusive: -9.23%
Cc1cc(OCC(=O)N2CCN(CCc3ccccn3)CC2)cc(C)c1Cl	–	inconclusive: 14.1% [at 46 µM]
CC(N)[C@H](O)c1ccc(O)c(O)c1 (some centres not stated)	–	inconclusive: 2.63% [at 46 µM]
CC1=[N+]([O-])C2(N)CCc3nonc3C2(O)C1 (configuration not stated)	–	inactive: 6.06%
C=CCn1c(O)c(C(=O)CCCCCC)c(=O)[nH]c1=O	–	inconclusive: -22.9%
CC(=O)C1C2c3ccccc3O[C@@]1(C)N=c1s/c(=C/c3ccoc3)c(=O)n12 (some centres not stated)	–	inconclusive: 5.47%

A second format for part of the listing above.
Compound | Potency | ratio change, negative = inhibition
CCCCc1ccc(C(=O)O)nc1 | – | inconclusive: -36.1%
Oc1ccc(Cl)cc1Cc1ccccc1 | – | inconclusive: 35%
CCCCN1C(=O)/C(=C/c2ccc(N(C)C)cc2)C(=O)N(Cc2ccco2)C1=O | – | inactive: 5.5%
CCC1(c2ccccc2)CCC(=O)NC1=O (configuration not stated) | – | inconclusive: -6.91%
Fc1cccc(CCNCc2ccccn2)c1 | – | inactive: 9.24%
CC1(C(O)(C#CCN2CCCCC2)c2ccccc2)CCCC1 (configuration not stated) | – | inconclusive: 53.5% [at 46 µM]
Cc1ccc(Cl)c(O)c1 | – | inconclusive: -34.6%
CC(=NCCCO)c1c(O)n(Cc2ccccc2)c(=O)[nH]c1=O | – | inactive: -3.56%
CC(C)(O)C(Cl)(Cl)Cl | – | inconclusive: -9.23%
Cc1cc(OCC(=O)N2CCN(CCc3ccccn3)CC2)cc(C)c1Cl | – | inconclusive: 14.1% [at 46 µM]

The results go on:

Compound	Potency	ratio change, negative = inhibition
CCc1ccc2c(CN3CC=C(c4ccccc4)CC3)cc(=O)oc2c1	–	inactive: -4.25%
Brc1ccc2[nH]cc(/C=N/N3CCCCC3)c2c1	–	inconclusive: -3.7%
O=C(O)c1cccc2c1NC(c1cccc([N+](=O)[O-])c1)C1CC(Sc3ccccc3[N+](=O)[O-])C(Cl)C21 (configuration not stated)	–	inactive: 5.19% [at 46 µM]
CCc1ccc(/C=C(/C#N)C(N)=S)cc1	–	inconclusive: 7.5%
Nc1nc(OCc2ccccc2)c2[nH]cnc2n1	inconclusive: 20 µM [inhibitor, single point]	–
CCCCn1c(O)c(C=NC2CCCCC2N)c(=O)[nH]c1=O (configuration not stated)	–	inactive: 0.832%
CO[C@H]1[C@@H](OC)CC(OC2OC(CO)C(O)C(O)C2O)/C(=C\C#N)[C@@H]1O (some centres not stated)	–	inconclusive: 1.06%
CC(=O)N1CCN(c2ccc(OC[C@H]3CO[C@](Cn4ccnc4)(c4ccc(Cl)cc4Cl)O3)cc2)CC1	–	inconclusive: -22.2%
Cc1ccc(-n2c(O)c(/C=N/Nc3ccccc3)c(=O)[nH]c2=O)cc1C	–	inconclusive: 14.3% [at 46 µM]
CCN(CC)Cc1c[nH]c2ccccc12	–	inconclusive: -9.88%
Cc1ccc(C(=O)C2CN3CCC2CC3)cc1 (configuration not stated)	–	inconclusive: 37.4%
Cc1ccc(S(=O)(=O)N(C)CCCC(=O)N2CCN(c3ccccn3)CC2)cc1	–	inconclusive: -31.7%
CC(C)c1ccc(O)c(CN2CCN(c3ccccc3)CC2)c1	inconclusive: 35.5 µM [inhibitor, single point]	–
CC[C@@]1(O)C(=O)OCc2c1cc1n(c2=O)Cc2cc3ccccc3nc2-1	inconclusive: 0.0056 µM [inhibitor, full curve]	–
CC(C)CN1CCN(Cc2cccc3c2OCO3)CC1CCO (configuration not stated)	–	inconclusive: 5.38% [at 46 µM]
Clc1ccc(CSC(Cn2ccnc2)c2ccc(Cl)cc2Cl)cc1 (configuration not stated)	inconclusive: 28.2 µM [falling, single point]	–
CC(C)Oc1cc(-n2c(=S)[nH]c3ccccc3c2=O)c(Cl)cc1Cl	–	inconclusive: 9.27%
Oc1c(Br)cc(Br)cc1Br	–	inconclusive: -27.2%
C[N+](C)(C)CCCCCCCCCC[N+](C)(C)C	–	inconclusive: -9.99%
C[C@H](O)[C@H]1CC[C@H]2[C@@H]3CCC4=CC(=O)CC[C@]4(C)[C@H]3CC[C@]12C	–	inconclusive: -4.02%
COc1ccccc1N1CCN(Cc2cc(C)c(C)cc2O)CC1	–	inactive: -18.7%
O=P(Nc1cccnc1)(Oc1ccccc1)Oc1ccccc1	–	inactive: 2.72%
O=C(N/N=C/c1c(O)n(Cc2ccc(F)cc2)c(=O)[nH]c1=O)c1ccccc1O	–	inactive: -14.4%
Oc1cc2c(cc1CN1CCN(c3ccccc3)CC1)CCC2	inconclusive: 35.5 µM [fluorescent, single point]	–
COc1ccc(OC)c(-n2c(O)c(C=Nc3c(C)n(C)n(-c4ccccc4)c3=O)c(=O)[nH]c2=O)c1	–	inactive: -4.22%

Taken from above:
Potency, COc1ccc(N2CCN(C(=O)c3cc(=O)[nH]c4ccccc34)CC2)cc1 reads inconclusive: 0.01 µM [inhibitor, full curve, poor fit]
ratio change, negative = inhibition, COc1ccccc1N1CCN(Cc2cc(C)c(C)cc2O)CC1 reads inactive: -18.7%
